Values from PubChem BioAssay AID1159584 (Peter MacCallum Cancer Centre, 2016)
Here is one part, drawn at random, of about 18,000 reagents tested. Not stated in the record: the amount of reagent, the time to read-out.

Aim: 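Genes whose loss is lethal only together with E-cadherin loss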 (primary screen)
Cell system: human MCF10A breast epithelial cells, parental and CDH1-null
Reagent: siRNA against human genes
Read-out: 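ATP luminescence (CellTiter-Glo) viability per line relative to mean mock wells over all plates, and the ratio of CDH1-null to parental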
Reading the numbers: CDH1-null / parental viability ratio: higher = CDH1-null cells survive relatively better than parental; CDH1-null viability vs mock: higher = more viable CDH1-null cells; parental viability vs mock: higher = more viable parental cells

gene | CDH1-null / parental viability ratio | CDH1-null viability vs mock (fraction of mock) | parental viability vs mock (fraction of mock)
ECH1 (enoyl-CoA hydratase 1) | 1.24 | 1.17 | 0.94
CLPB (ClpB family mitochondrial disaggregase) | 0.97 | 0.86 | 0.89
RTL8C (retrotransposon Gag like 8C) | 0.93 | 0.56 | 0.6
PRSS36 (serine protease 36) | 1.08 | 0.67 | 0.62
RBM18 (RNA binding motif protein 18) | 0.94 | 0.96 | 1.02
CTDSP1 (CTD small phosphatase 1) | 1.48 | 0.92 | 0.62
AEN (apoptosis enhancing nuclease) | 0.94 | 0.8 | 0.85
TTC7B (tetratricopeptide repeat domain 7B) | 0.76 | 0.55 | 0.72
COPS8 (COP9 signalosome subunit 8) | 0.84 | 0.72 | 0.86
FXYD1 (FXYD domain containing ion transport regulator 1) | 1.08 | 0.8 | 0.74
STBD1 (starch binding domain 1) | 1.26 | 0.83 | 0.66
PPDPFL | 0.92 | 0.66 | 0.72
RTN4IP1 (reticulon 4 interacting protein 1) | 0.87 | 0.74 | 0.85
PACS1 (phosphofurin acidic cluster sorting protein 1) | 0.73 | 0.44 | 0.6

Part of the list above, showing only “CDH1-null viability vs mock (fraction of mock)”:
STBD1 (starch binding domain 1)	0.83
PPDPFL	0.66

Further results:
gene | CDH1-null / parental viability ratio | CDH1-null viability vs mock (fraction of mock) | parental viability vs mock (fraction of mock)
BIRC5 (baculoviral IAP repeat containing 5) | 1.15 | 0.71 | 0.62
SCN10A (sodium voltage-gated channel alpha subunit 10) | 1.29 | 0.98 | 0.76
PRG4 (proteoglycan 4) | 1.02 | 0.98 | 0.96
PPIP5K1 (diphosphoinositol pentakisphosphate kinase 1) | 1.4 | 0.84 | 0.6
DYNLT4 (dynein light chain Tctex-type 4) | 1.21 | 0.98 | 0.81
CSHL1 (chorionic somatomammotropin hormone like 1) | 1.03 | 0.72 | 0.7
PNP (purine nucleoside phosphorylase) | 1 | 0.94 | 0.94
IGSF10 (immunoglobulin superfamily member 10) | 1.26 | 1.15 | 0.91
FGA (fibrinogen alpha chain) | 0.86 | 0.67 | 0.78
DDX3Y (DEAD-box helicase 3 Y-linked) | 0.93 | 0.93 | 1
MXD4 (MAX dimerization protein 4) | 0.96 | 0.72 | 0.75
STT3B (STT3 oligosaccharyltransferase complex catalytic subunit B) | 1.15 | 0.9 | 0.78
TTI2 (TELO2 interacting protein 2) | 1.12 | 0.96 | 0.86
MTDH (metadherin) | 1.01 | 0.7 | 0.69
